Measurements reported in patent US20240294634A1.
These are yes or no findings as the source states them, for the method shown. Some entries that bind do so weakly or less than the wild type.

The chains behind the UniProt entries cited, without tags or fusion partners. Residues count along the entry.
UniProt Q8NHL6, residues 24-458: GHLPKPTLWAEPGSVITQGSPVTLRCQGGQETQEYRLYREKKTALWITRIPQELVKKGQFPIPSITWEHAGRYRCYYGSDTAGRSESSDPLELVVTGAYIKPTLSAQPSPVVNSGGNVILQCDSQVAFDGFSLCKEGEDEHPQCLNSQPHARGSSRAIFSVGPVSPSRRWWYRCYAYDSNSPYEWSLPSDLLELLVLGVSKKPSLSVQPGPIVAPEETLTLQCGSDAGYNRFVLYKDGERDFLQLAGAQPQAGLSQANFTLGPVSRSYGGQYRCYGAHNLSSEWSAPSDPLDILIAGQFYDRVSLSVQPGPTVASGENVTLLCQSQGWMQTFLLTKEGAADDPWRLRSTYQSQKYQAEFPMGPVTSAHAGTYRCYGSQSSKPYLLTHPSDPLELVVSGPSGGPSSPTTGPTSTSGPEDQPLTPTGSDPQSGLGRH

Key:
[1] = target: Human ILT-2 (complete form) expressed at the cell surface (human) (UniProt Q8NHL6); assay: flow cytometry, ILT2 point mutation study
[2] = target: ILT2 D2-D3-D4 domain protein at the cell surface (human) (UniProt Q8NHL6); assay: flow cytometry, CHO cells with anchored ILT2 fragment
[3] = target: ILT2 D3-D4 domain protein at the cell surface (human) (UniProt Q8NHL6); assay: as above
[4] = target: ILT2 D4 domain protein at the cell surface (human) (UniProt Q8NHL6); assay: as above
[5] = target: ILT2 D4 domain protein at the cell surface (human) (UniProt Q8NHL6); assay: flow cytometry on CHO cells expressing the ILT2 D4 domain protein
[6] = target: Human ILT-2 (complete form) expressed at the cell surface (human) (UniProt Q8NHL6); assay: flow cytometry titration on cells transfected with wild-type ILT2 (WT)
[7] = target: BirA-tagged ILT2 protein, biotinylated, tetramerised on APC-conjugated streptavidin (UniProt Q8NHL6); assay: flow cytometry blocking assay: antibody pre-incubated with ILT2-streptavidin tetramers, then added to HLA-G or HLA-A2 expressing cells; blocked ligands HLA-G and HLA-A2; antibody concentration not given

Measured: binding

B1: 27C10 (antibody, human IgG1, V domains shown)
VH: EVQLQESGPGLVKPSQSLSLTCSVTGYSITSGYYWNWIRQFPENKLEWMGYIRYDGSNNYNPSLNNRISITRDASKNQFFLKLNSVTTEDTATYYCARGWLLWFYAVDYWGQGTSVTVSS
VL: DVVMTQTPLSLPVSLGDQASISCRSSQSIVHTNGNTYLEWYLQKSGQSPKLLIYKVSNRLSGVPDRFSGSGSGTDFTLKISRVEAEDLGIYYCFQGSHVPWTFGGGTKLEIK
binds: [1] | [2] | [3] | [4] | [5] | [6]

B2: 18E1 (antibody, human IgG1, V domains shown)
VH: QVQLQQSGAELVKPGASVRLSCKASGYTFTAHTIHWVKQRSGQGLEWIGWLYPGSGSIKYNEKFKDKATLTADKSSSTVYMELSRLTSEDSAVYFCARHTNWDFDYWGQGTTLTVSS
VL: NIVLTQSPASLAVSLGQRATISCKASQSVDYGGASYMNWYQQKPGQPPKLLIYAASNLESGIPARFSGSGSGTDLTLNIHPVEEEDAAMYYCQQSNEEPWTFGGGTKLEIK
binds: [1] | [2] | [3] | [4] | [5] | [6] | [7]

B3: 26D8 (antibody, human IgG1, V domains shown)
VH: QVQLQQSGAELVKPGASVKLSCKASGYTFTEHTIHWIKQRSGQGLEWIGWFYPGSGSMKYNEKFKDKATLTADKSSSTVYMELTRLTSEDSAVYFCARHTNWDFDYWGQGTTLTVSS
VL: DIVLTQSPASLAVSLGQRATISCKASQSVDYGGDSYMNWYQQKPGQPPKLLIYAASNLESGIPARFSGSGSGTDLTLNIHPVEEDDAAMYYCQQSNEEPWTFGGGTKLEIK
binds: [1] | [2] | [3] | [4] | [5] | [6] | [7]

B4: 3H5 (antibody, human IgG1, V domains shown)
VH: QVQLKESGPGLVAPSQSLSITCTVSGFSLTSYGVSWVRQPPGKGLEWLGVIWGDGSTNYHSALISRLSISKDNSKSQVFLKLNSLQTDDTATYYCAKPRWDDYAMDYWGQGTSVTVSS
VL: DIQMTQTTSSLSASLGDRVTISCRASQDISNYLNWYQQKPDGTVKLLIYYTSRLHSGVPSRFSGSGSGTDYSLTISNLEQEDIATYFCQQGNTLWTFGGGTKLEIK
binds: [1] | [6]

B5: 12D12 (antibody, human IgG1, V domains shown)
VH: QVQLQQPGAELVKPGASVRMSCKASGYTFTSYWVHWVKQRPGQGLEWIGVIDPSDSYTSYNQNFKGKATLTVDTSSKTAYIHLSSLTSEDSAVYFCARGERYDGDYFAMDYWGQGTSVTVSS
VL: DIVMTQSPASLSVSVGETVTITCRASENIYSNLAWYQQKQGKSPQLLVYAATNLADGVPSRFSGSRSGTQYSLKINSLQSEDFGTYYCQHFWNTPRTFGGGTKLEIK
binds: [1] | [6] | [7]

B6: 27H5 (antibody, human IgG1, V domains shown)
VH: QVQLKESGPGLVAPSQSLSITCTVSGFSLTSYGVSWVRQPPGKGLEWLGVIWGDGNTNYHSALISRLSISKDNSKSQVFLKLNSLQTDDTATYYCARTNWDGWFAYWGQGTLVTVSA
VL: DIVMTQSHKFMSTSVGDRVSITCKASQDVGTAVAWYQQKPGQSPKLLIYWASTRHTGVPDRFTGSGSGTDFTLTISNVQSEDLADYFCQQYRSYPLGTFGGGTKLEIK
binds: [1] | [6]

B7: 2H2A (antibody, V domains shown)
VH: EVKLEESGPELVKPGASVKLSCKASGYTFTNYYMQWVKQRPGQGLEWIGWIFPGSGESSYNEKFKGKATLSADTSSTTAYMQLSSLTSEDSAVYFCARTWNYDARWGYWGQGTTLTVSS
VL: DILMTQSPASLAVSLGQRATISCIPSESIDSYGISFMHWYQQKPGQPPKLLIYRASNLESGIPARFSGSGSRTDFTLTINPVEADDVATYYCQQSNEDPFTFGSGTKLELK
binds: [1]
